# Measured data: PubChem BioAssay AID1508597 (Cure First, 2020)
# Test: 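Knock-downs altering ovarian cancer cell survival with or without PARP inhibitor rucaparib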 (primary screen)
# Cell system: human ovarian carcinoma lines grown from tumours: OCI-P5x (papillary serous) and OCI-C5x (clear cell)
# Reagent: siRNA pool against human genes, 1.25 pmol siRNA per well
# Duration: 72 h or 96 h, depending on the cell culture
# Treatment: rucaparib 20 µM (about IC30) or vehicle, present until read-out
# Rucaparib or vehicle: Vehicle
# Cell line: OCI-P5x (serous)
# Read-out: 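Luminescent ATP-based viability assay read 72 or 96 h after transfection, depending on culture, given as normalised percent viability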
# Scale: viability, normalised: higher = more viable cells remaining
# Rule for the call: 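Active when normalised viability falls below 80 percent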
# Meaning of the calls: active = viability under 80%; inactive = viability 80% or more
# Shown is an unselected part of the about 2,100 reagents, under one of the conditions tested. 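Calls flag viability under 80% in either arm, not effects specific to rucaparib; the reference for percent is not stated.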 Some reagents were tested in more than one well and are listed for each. Reagent sequences are not shown. The record does not give: the 100% reference.
Target gene,technical replicate,"viability, normalised (%)",Outcome
DDX50,1,70.4,active
DDX50,2,75.7,active
DDX50,3,79.1,active
IPO8,1,76.7,active
IPO8,2,83.6,inactive
IPO8,3,84.1,inactive
H2AX,1,54.8,active
H2AX,2,54,active
H2AX,3,50.6,active
FRMPD4,1,65.8,active
FRMPD4,2,62.4,active
FRMPD4,3,75.7,active
EYA3,1,49.5,active
EYA3,2,51.5,active
EYA3,3,56,active
DGKA,1,104,inactive
DGKA,2,101,inactive
DGKA,3,97.6,inactive
H4C8,1,75.1,active
H4C8,2,85.4,inactive
H4C8,3,76.9,active
PRKAR1B,1,96.4,inactive
PRKAR1B,2,115,inactive
PRKAR1B,3,112,inactive
MYO3B,1,92.2,inactive
MYO3B,1,67.6,active
MYO3B,2,74,active
MYO3B,2,106,inactive
MYO3B,3,97,inactive
MYO3B,3,84.8,inactive
HPS1,1,53.3,active
HPS1,2,56.8,active
HPS1,3,58.6,active
PRKD2,1,70.3,active
PRKD2,2,74.6,active
PRKD2,3,71.8,active
DNM3,1,68.3,active
DNM3,2,53.3,active
DNM3,3,73.8,active
WNT7A,1,73,active
WNT7A,2,107,inactive
WNT7A,3,116,inactive
JAK3,1,114,inactive
JAK3,2,107,inactive
JAK3,3,111,inactive
MED28,1,65.3,active
MED28,2,74.5,active
MED28,3,58.2,active
SMARCD3,1,59.5,active
SMARCD3,2,59.6,active
SMARCD3,3,99.1,inactive
AMHR2,1,85.5,inactive
AMHR2,2,78.7,active
AMHR2,3,83.5,inactive
DMAP1,1,63,active
DMAP1,2,64.3,active
DMAP1,3,78.8,active

5 neighbouring entries already listed, for reference:
Target gene,technical replicate,"viability, normalised (%)",Outcome
PRKAR1B,1,96.4,inactive
PRKAR1B,2,115,inactive
PRKAR1B,3,112,inactive
MYO3B,1,92.2,inactive
MYO3B,1,67.6,active
